Measured values reported in paper PMC10796436, “Peptidyl nitroalkene inhibitors of main protease rationalized by computational and crystallographic investigations as antivirals against SARS-CoV-2” (Communications Chemistry, 2024).
Where two headings read alike, the source gives them in different places. The source gives many values for each of these; only a part stands here.

Target: M^pro (Severe acute respiratory syndrome coronavirus 2, UniProt P0DTD1)
Format: binding

## COc1cccc2[nH]c(C(=O)N[C@@H](CC(C)C)C(=O)N[C@H](/C=C/[N+](=O)[O-])C[C@@H]3CCNC3=O)cc12 [FGA146]
25 mM, 20 °C
  Fraction unfolded: -0.07706
25 mM, 20.5 °C
  Fraction unfolded: 0.0593
25 mM, 21 °C
  Fraction unfolded: -0.00904
25 mM, 33 °C
  Fraction unfolded: 0.0786
25 mM, 33.5 °C
  Fraction unfolded: -0.05017
25 mM, 34 °C
  Fraction unfolded: 0.06047
25 mM, 34.5 °C
  Fraction unfolded: -0.01983
25 mM, 35 °C
  Fraction unfolded: 0.03448
25 mM, 35.5 °C
  Fraction unfolded: -0.04231
25 mM, 36 °C
  Fraction unfolded: 0.01333
25 mM, 36.5 °C
  Fraction unfolded: 0.01655
25 mM, 37 °C
  Fraction unfolded: 0.01632
25 mM, 37.5 °C
  Fraction unfolded: 0.04079
25 mM, 38 °C
  Fraction unfolded: 0.0059
25 mM, 38.5 °C
  Fraction unfolded: 0.0724
25 mM, 39 °C
  Fraction unfolded: -0.05253
25 mM, 39.5 °C
  Fraction unfolded: -0.06377
25 mM, 40 °C
  Fraction unfolded: 0.05897
25 mM, 40.5 °C
  Fraction unfolded: 0.2474
25 mM, 41 °C
  Fraction unfolded: 0.05081
25 mM, 41.5 °C
  Fraction unfolded: 0.3107
25 mM, 42 °C
  Fraction unfolded: 0.1845
25 mM, 42.5 °C
  Fraction unfolded: 0.1749
25 mM, 43 °C
  Fraction unfolded: 0.01336
25 mM, 43.5 °C
  Fraction unfolded: 0.1337
25 mM, 44 °C
  Fraction unfolded: 0.4157
25 mM, 44.5 °C
  Fraction unfolded: 0.2834
25 mM, 45 °C
  Fraction unfolded: 0.6539
25 mM, 45.5 °C
  Fraction unfolded: 0.7235
25 mM, 46 °C
  Fraction unfolded: 0.6473
25 mM, 46.5 °C
  Fraction unfolded: 0.4957
25 mM, 47 °C
  Fraction unfolded: 0.8613
25 mM, 47.5 °C
  Fraction unfolded: 0.8732
25 mM, 48 °C
  Fraction unfolded: 0.8705
25 mM, 48.5 °C
  Fraction unfolded: 0.8937
25 mM, 49 °C
  Fraction unfolded: 1.007
25 mM, 49.5 °C
  Fraction unfolded: 0.8743
25 mM, 50 °C
  Fraction unfolded: 0.8769
25 mM, 50.5 °C
  Fraction unfolded: 1.037
25 mM, 51 °C
  Fraction unfolded: 1.013
25 mM, 51.5 °C
  Fraction unfolded: 1.018
25 mM, 52 °C
  Fraction unfolded: 1.016
25 mM, 52.5 °C
  Fraction unfolded: 1.031
25 mM, 53 °C
  Fraction unfolded: 0.9532
25 mM, 53.5 °C
  Fraction unfolded: 1.04
25 mM, 54 °C
  Fraction unfolded: 0.8789
25 mM, 54.5 °C
  Fraction unfolded: 1
25 mM, 55 °C
  Fraction unfolded: 1.07
25 mM, 55.5 °C
  Fraction unfolded: 1.013
25 mM, 56 °C
  Fraction unfolded: 0.9226
25 mM, 56.5 °C
  Fraction unfolded: 0.9616
25 mM, 57 °C
  Fraction unfolded: 1.036
25 mM, 57.5 °C
  Fraction unfolded: 1.029
25 mM, 58 °C
  Fraction unfolded: 0.983
25 mM, 58.5 °C
  Fraction unfolded: 1.036
25 mM, 59 °C
  Fraction unfolded: 1.025
25 mM, 59.5 °C
  Fraction unfolded: 0.9589
25 mM, 60 °C
  Fraction unfolded: 0.9644
25 mM, 60.5 °C
  Fraction unfolded: 1.026
25 mM, 61 °C
  Fraction unfolded: 0.964
25 mM, 61.5 °C
  Fraction unfolded: 0.9813
25 mM, 62 °C
  Fraction unfolded: 1.01
25 mM, 62.5 °C
  Fraction unfolded: 1.013
25 mM, 63 °C
  Fraction unfolded: 0.9596
25 mM, 63.5 °C
  Fraction unfolded: 1.031
25 mM, 64 °C
  Fraction unfolded: 1.031
25 mM, 64.5 °C
  Fraction unfolded: 1.049
25 mM, 65 °C
  Fraction unfolded: 0.9471
25 mM, 65.5 °C
  Fraction unfolded: 0.9932
25 mM, 66 °C
  Fraction unfolded: 0.9745
100 mM, 20 °C
  Fraction unfolded: 0.04267
100 mM, 20.5 °C
  Fraction unfolded: -0.01602
100 mM, 21 °C
  Fraction unfolded: 0.0059
100 mM, 33 °C
  Fraction unfolded: 0.0786
100 mM, 33.5 °C
  Fraction unfolded: -0.05017
100 mM, 34 °C
  Fraction unfolded: 0.06047
100 mM, 34.5 °C
  Fraction unfolded: -0.01983
100 mM, 35 °C
  Fraction unfolded: 0.03448
100 mM, 35.5 °C
  Fraction unfolded: -0.02452
100 mM, 36 °C
  Fraction unfolded: 0.01123
100 mM, 36.5 °C
  Fraction unfolded: 0.1676
100 mM, 37 °C
  Fraction unfolded: 0.01918
100 mM, 37.5 °C
  Fraction unfolded: 0.12
100 mM, 38 °C
  Fraction unfolded: 0.2356
100 mM, 38.5 °C
  Fraction unfolded: 0.07016
100 mM, 39 °C
  Fraction unfolded: 0.273
100 mM, 39.5 °C
  Fraction unfolded: 0.3854
100 mM, 40 °C
  Fraction unfolded: 0.2776
100 mM, 40.5 °C
  Fraction unfolded: 0.3535
100 mM, 41 °C
  Fraction unfolded: 0.3626
100 mM, 41.5 °C
  Fraction unfolded: 0.3626
100 mM, 42 °C
  Fraction unfolded: 0.4645
100 mM, 42.5 °C
  Fraction unfolded: 0.4952
100 mM, 43 °C
  Fraction unfolded: 0.5051
100 mM, 43.5 °C
  Fraction unfolded: 0.4723
100 mM, 44 °C
  Fraction unfolded: 0.4876
100 mM, 44.5 °C
  Fraction unfolded: 0.5511
100 mM, 45 °C
  Fraction unfolded: 0.6282
100 mM, 45.5 °C
  Fraction unfolded: 0.7309
100 mM, 46 °C
  Fraction unfolded: 0.7887
100 mM, 46.5 °C
  Fraction unfolded: 0.8063
100 mM, 47 °C
  Fraction unfolded: 0.8768
100 mM, 47.5 °C
  Fraction unfolded: 0.8562
100 mM, 48 °C
  Fraction unfolded: 0.8853
100 mM, 48.5 °C
  Fraction unfolded: 0.8898
100 mM, 49 °C
  Fraction unfolded: 0.8979
100 mM, 49.5 °C
  Fraction unfolded: 0.8905
100 mM, 50 °C
  Fraction unfolded: 0.8425
100 mM, 50.5 °C
  Fraction unfolded: 0.8846
100 mM, 51 °C
  Fraction unfolded: 0.8748
100 mM, 51.5 °C
  Fraction unfolded: 0.8744
100 mM, 52 °C
  Fraction unfolded: 0.8776
100 mM, 52.5 °C
  Fraction unfolded: 0.8803
100 mM, 53 °C
  Fraction unfolded: 0.8955
100 mM, 53.5 °C
  Fraction unfolded: 0.933
100 mM, 54 °C
  Fraction unfolded: 0.9493
100 mM, 54.5 °C
  Fraction unfolded: 1.013
100 mM, 55 °C
  Fraction unfolded: 1.007
100 mM, 55.5 °C
  Fraction unfolded: 0.9957
100 mM, 56 °C
  Fraction unfolded: 1.002
100 mM, 56.5 °C
  Fraction unfolded: 1.01
100 mM, 57 °C
  Fraction unfolded: 0.9947
100 mM, 57.5 °C
  Fraction unfolded: 0.991
100 mM, 58 °C
  Fraction unfolded: 0.9805
100 mM, 58.5 °C
  Fraction unfolded: 0.9602
100 mM, 59 °C
  Fraction unfolded: 0.9536
100 mM, 59.5 °C
  Fraction unfolded: 0.9821
100 mM, 60 °C
  Fraction unfolded: 0.9922
100 mM, 60.5 °C
  Fraction unfolded: 1.065
100 mM, 61 °C
  Fraction unfolded: 1.048
100 mM, 61.5 °C
  Fraction unfolded: 1.055
100 mM, 62 °C
  Fraction unfolded: 1.018
100 mM, 62.5 °C
  Fraction unfolded: 0.9734
100 mM, 63 °C
  Fraction unfolded: 0.9259
100 mM, 63.5 °C
  Fraction unfolded: 0.9303
100 mM, 64 °C
  Fraction unfolded: 1.01
100 mM, 64.5 °C
  Fraction unfolded: 0.9745
100 mM, 65 °C
  Fraction unfolded: 0.9674
100 mM, 65.5 °C
  Fraction unfolded: 1.009
100 mM, 66 °C
  Fraction unfolded: 1.012
